Among the data in publication doi:10.1101/2024.12.21.629933 are binding values, retold here.

The chains behind the UniProt entries cited, without tags or fusion partners. Residues count along the entry.
UniProt P62330: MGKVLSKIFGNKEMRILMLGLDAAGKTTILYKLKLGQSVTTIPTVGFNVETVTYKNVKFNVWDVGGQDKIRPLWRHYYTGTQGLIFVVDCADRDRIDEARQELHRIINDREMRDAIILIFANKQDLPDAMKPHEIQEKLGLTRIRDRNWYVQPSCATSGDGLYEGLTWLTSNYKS
UniProt P16070, residues 21-742: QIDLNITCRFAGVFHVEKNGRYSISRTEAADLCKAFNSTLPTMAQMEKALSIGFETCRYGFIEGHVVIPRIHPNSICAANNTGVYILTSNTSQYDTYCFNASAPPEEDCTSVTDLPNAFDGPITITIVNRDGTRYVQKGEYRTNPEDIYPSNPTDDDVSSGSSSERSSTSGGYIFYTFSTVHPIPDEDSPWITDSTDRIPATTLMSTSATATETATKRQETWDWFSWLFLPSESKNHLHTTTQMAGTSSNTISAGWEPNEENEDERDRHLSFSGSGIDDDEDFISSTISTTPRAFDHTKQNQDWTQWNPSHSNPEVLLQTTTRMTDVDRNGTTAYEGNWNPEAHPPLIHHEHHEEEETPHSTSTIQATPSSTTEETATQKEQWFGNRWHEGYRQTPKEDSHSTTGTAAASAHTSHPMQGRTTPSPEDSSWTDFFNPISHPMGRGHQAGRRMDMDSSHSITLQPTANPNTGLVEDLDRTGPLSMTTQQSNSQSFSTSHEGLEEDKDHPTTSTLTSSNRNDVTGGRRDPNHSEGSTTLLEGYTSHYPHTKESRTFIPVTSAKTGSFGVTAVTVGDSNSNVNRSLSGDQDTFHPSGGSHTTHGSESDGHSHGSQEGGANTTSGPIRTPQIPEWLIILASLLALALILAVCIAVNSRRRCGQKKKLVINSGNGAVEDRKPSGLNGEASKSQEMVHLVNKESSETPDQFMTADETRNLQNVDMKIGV
UniProt P52630: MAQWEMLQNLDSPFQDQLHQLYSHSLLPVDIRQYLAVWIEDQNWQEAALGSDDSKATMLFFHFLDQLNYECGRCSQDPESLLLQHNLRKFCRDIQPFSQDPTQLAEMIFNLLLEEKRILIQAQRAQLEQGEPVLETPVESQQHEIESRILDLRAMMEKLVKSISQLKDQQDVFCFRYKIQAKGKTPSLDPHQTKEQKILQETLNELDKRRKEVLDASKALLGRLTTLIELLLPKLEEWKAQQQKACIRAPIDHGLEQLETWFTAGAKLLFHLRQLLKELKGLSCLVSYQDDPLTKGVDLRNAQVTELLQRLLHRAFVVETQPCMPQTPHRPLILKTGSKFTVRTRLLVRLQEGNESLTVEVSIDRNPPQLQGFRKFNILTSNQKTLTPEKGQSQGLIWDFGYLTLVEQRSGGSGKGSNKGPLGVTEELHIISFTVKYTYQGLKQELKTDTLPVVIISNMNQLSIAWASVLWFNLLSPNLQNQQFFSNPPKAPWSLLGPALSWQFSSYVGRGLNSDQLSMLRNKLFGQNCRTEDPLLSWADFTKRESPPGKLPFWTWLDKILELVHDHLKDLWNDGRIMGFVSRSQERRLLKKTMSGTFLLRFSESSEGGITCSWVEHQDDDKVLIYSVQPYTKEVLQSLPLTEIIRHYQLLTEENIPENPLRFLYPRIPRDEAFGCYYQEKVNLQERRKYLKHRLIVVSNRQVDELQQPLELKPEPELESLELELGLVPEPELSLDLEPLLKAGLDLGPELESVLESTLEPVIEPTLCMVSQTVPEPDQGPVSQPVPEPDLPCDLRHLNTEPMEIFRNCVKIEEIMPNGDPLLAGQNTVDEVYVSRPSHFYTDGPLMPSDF

Where two headings read alike, the source gives them in different places. No constants are given. Whether binding was seen depends on the method and setting. In cells and extracts the contact can be indirect. These calls come from enrichment with a bait or labelling near it, and not all partners need be listed.

Common to all, as to test: proximity labelling
For assay [1], the target named is Flag-EGFR (full-length epidermal growth factor receptor with an extracellular N-terminal Flag-tag) (UniProt P00533).
Assay [2] concerns the target EGFR-HaloTag (Flag-EGFR-HaloTag; full-length EGFR with an intracellular C-terminal HaloTag) (UniProt P00533).
For assay [3], the target named is Flag-EGFR (full-length epidermal growth factor receptor with an extracellular N-terminal Flag-tag) (UniProt P00533). The source holds these as a separate data set.

Regarding “ADP-ribosylation factor ARF6 (from UniProt P62330 1-175)”, the binding entry in assay [1] and in assay [2] was “binds” each time. In the case of CD44 (from UniProt P16070 21-742), the binding result in assay [1] is given as “binds”. With STAT2 (from UniProt P52630 1-851), the binding result in assay [1] is on record as “binds”. Regarding “integrin A2 (ITA2) (from UniProt P17301 30-1181)”, the binding result in assay [1] and in assay [2] was “binds” in each case.

For “β-catenin (CTNNB) (from UniProt P35222 1-781)”, the binding result in assay [1] and in assay [2] was “binds” in each case.

B1: Dynamin1 (DYN1) (protein, UniProt Q05193 1-864)
chain: MGNRGMEDLIPLVNRLQDAFSAIGQNADLDLPQIAVVGGQSAGKSSVLENFVGRDFLPRGSGIVTRRPLVLQLVNATTEYAEFLHCKGKKFTDFEEVRLEIEAETDRVTGTNKGISPVPINLRVYSPHVLNLTLVDLPGMTKVPVGDQPPDIEFQIRDMLMQFVTKENCLILAVSPANSDLANSDALKVAKEVDPQGQRTIGVITKLDLMDEGTDARDVLENKLLPLRRGYIGVVNRSQKDIDGKKDITAALAAERKFFLSHPSYRHLADRMGTPYLQKVLNQQLTNHIRDTLPGLRNKLQSQLLSIEKEVEEYKNFRPDDPARKTKALLQMVQQFAVDFEKRIEGSGDQIDTYELSGGARINRIFHERFPFELVKMEFDEKELRREISYAIKNIHGIRTGLFTPDMAFETIVKKQVKKIREPCLKCVDMVISELISTVRQCTKKLQQYPRLREEMERIVTTHIREREGRTKEQVMLLIDIELAYMNTNHEDFIGFANAQQRSNQMNKKKTSGNQDEILVIRKGWLTINNIGIMKGGSKEYWFVLTAENLSWYKDDEEKEKKYMLSVDNLKLRDVEKGFMSSKHIFALFNTEQRNVYKDYRQLELACETQEEVDSWKASFLRAGVYPERVGDKEKASETEENGSDSFMHSMDPQLERQVETIRNLVDSYMAIVNKTVRDLMPKTIMHLMINNTKEFIFSELLANLYSCGDQNTLMEESAEQAQRRDEMLRMYHALKEALSIIGDINTTTVSTPMPPPVDDSWLQVQSVPAGRRSPTSSPTPQRRAPAVPPARPGSRGPAPGPPPAGSALGGAPPVPSRPGASPDPFGPPPQVPSRPNRAPPGVPSRSGQASPSRPESPRPPFDL
Take B1: the binding entry in assay [3] is listed as “binds”.
